# Some results were stated once for a whole list of compounds, not compound by compound. For at least one compound, name, drawing or mass did not settle the structure.
# Tested on: Puccinia recondita
# Experiment: Puccinia test (wheat)/protective
# Format: in vivo
# Details: active compound concentration 500 ppm, protective, evaluation 8-10 days after inoculation
row,SMILES,efficacy [%]
1,CC(=NOCC(C)CON=C(C)c1cc(N2CCCC2)cc(C)n1)c1cc(N2CCCC2)cc(C)n1 (stereo not shown) [Compound 847],≥ 70
2,COc1cc(C)nc(C(C)=NOCC(C)(C)CON=C(C)c2cc(OC)cc(C)n2)c1 [Compound 840],≥ 70
3,Cc1cc(C)nc(C(N)=NOC/C=C/CON=C(N)c2nc(C)cc(C)n2)n1 [Compound 772],≥ 70
4,CC(=NOCC(C)(C)CON=C(C)c1ccc(C)o1)c1ccc(C)o1 [Compound 698],≥ 70
5,CC(=NOCC#CCON=C(C)c1cccc(C)n1)c1cccc(C)n1 [Compound 706],≥ 70
6,CC(=NOCC(C)CON=C(C)c1cccc(C#N)n1)c1cccc(C#N)n1 (stereo not shown) [Compound 800],≥ 70
7,CC(=NOCC1(CON=C(C)c2cccc(C3CC3)n2)CC1)c1cccc(C2CC2)n1 [Compound 848],≥ 70
8,C=C(CON=C(OCC)c1cccc(C)n1)CON=C(OCC)c1ccc(C)c(C)n1 [Compound 843],≥ 70
9,"CC(=NOCC(C)CON=C(C)c1nc(C)ccc1C)c1nc(C)ccc1C (single isomer, unassigned) [Compound 267]",≥ 70
10,CC(=NOCC(C)(C)CON=C(C)c1cc(C2CC2)cc(C)n1)c1cc(C2CC2)cc(C)n1 [Compound 817],≥ 70
11,C=C(CON=C(C)c1cccc(C)n1)CON=C(C)c1nc(C)c(C)s1 [Compound 18],≥ 70
12,CC(=NOCC(C)(C)CON=C(C)c1cccc(Cc2ccccc2)n1)c1cccc(Cc2ccccc2)n1 [Compound 798],≥ 70
13,"C=C(CON=C(C)c1ccccn1)CON=C(C)c1cccc(C)n1 (single isomer, unassigned) [Compound 17]",≥ 70
14,COC(=NOCC(C)CON=C(OC)c1cccc(C)n1)c1cccc(C)n1 (stereo not shown) [Compound 835],≥ 70
15,C/C(=N\OCC(C)(C)CON)c1cc(C)cc(C)n1 [XII-14],≥ 70
16,CCOc1cc(C)nc(C(C)=NOCC(C)(C)CON=C(C)c2cc(OCC)cc(C)n2)c1 [Compound 841],≥ 70
17,CC(=NOC/C=C/CON=C(C)c1cccc(C)n1)c1cccc(C)n1 [Compound 777],≥ 70
18,CC(=NOCC(C)(C)CON=C(CC(C)C)c1cccc(C)n1)c1cccc(C)n1 [Compound 538],≥ 70
19,CC(=NOCC(C)(C)CON=C(C)c1cc(C2CC2)cc(C)n1)c1cccc(C)n1 [Compound 818],≥ 70
20,Cc1cc(C)nc(C(C#N)=NOCC(C)CON=C(C#N)c2cc(C)cc(C)n2)c1 (stereo not shown) [Compound 838],≥ 70

# Tested on: Sphaerotheca fuliginea
# Experiment: Sphaerotheca test (cucumber)/protective
# Format: in vivo
# Details: active compound concentration 500 ppm, protective, evaluation 7 days after inoculation
row,SMILES,efficacy [%]
1,COc1cc(C)nc(C(C)=NOCC(C)(C)CON=C(C)c2cc(OC)cc(C)n2)c1 [Compound 840],≥ 70
2,"CCC(=NOCC(C)CON=C(CC)c1cccc(CC)n1)c1cccc(CC)n1 (single isomer, unassigned) [Compound 253]",≥ 70
3,CC(=NOCC1(CON=C(C)c2cccc(C3CC3)n2)CC1)c1cccc(C2CC2)n1 [Compound 848],≥ 70
4,"CC(=NOCC(C)CON=C(C)c1nc(C)ccc1C)c1nc(C)ccc1C (single isomer, unassigned) [Compound 267]",≥ 70
5,CC(=NOCC(C)(C)CON=C(C)c1cc(C2CC2)cc(C)n1)c1cc(C2CC2)cc(C)n1 [Compound 817],≥ 70
6,CCOc1cc(C)nc(C(C)=NOCC(C)(C)CON=C(C)c2cc(OCC)cc(C)n2)c1 [Compound 841],≥ 70
7,CC(=NOC/C=C/CON=C(C)c1cccc(C)n1)c1cccc(C)n1 [Compound 777],≥ 70
8,CC(=NOCC(C)(C)CON=C(CC(C)C)c1cccc(C)n1)c1cccc(C)n1 [Compound 538],≥ 70
9,CC(=NOCC(C)(C)CON=C(C)c1cc(C2CC2)cc(C)n1)c1cccc(C)n1 [Compound 818],≥ 70

# Tested on: Pyrenophora teres
# Experiment: Pyrenophora teres test (barley)/protective
# Format: in vivo
# Details: active compound concentration 1000 ppm, protective, evaluation 8 days after inoculation
row,SMILES,efficacy [%]
1,C/C(=N\OCC(C)CON)c1ccc(C)c(C)n1 (racemic) [XII-7],≥ 70
2,CC(=NOCCC(C)CCON=C(C)c1cccc(C)n1)c1cccc(C)n1 (stereo not shown) [Compound 75],≥ 70
3,CC1=NOC(CO/N=C(\C)c2cc(C)cc(C)n2)(CO/N=C(\C)c2cc(C)cc(C)n2)C1 [Compound 637],≥ 70
4,C=C(CON=C(C)c1cccc(C)n1)CON=C(C)c1nc(C)c(C)s1 [Compound 18],≥ 70
5,CC(=NOCCCCCON=C(C)c1cccc(C)n1)c1cccc(C)n1 [Compound 11],≥ 70
6,CC(=NOCc1cccc(CON=C(C)c2cccc(C)n2)n1)c1cccc(C)n1 [Compound 740],≥ 70
7,Cc1cccc(C(=NOCCCON=C(c2cccc(C)n2)C2CC2)C2CC2)n1 (mixture of isomers) [Compound 167],≥ 70

# Tested on: Leptosphaeria nodorum
# Experiment: Leptosphaeria nodorum test (wheat)/protective
# Format: in vivo
# Details: active compound concentration 1000 ppm, protective, evaluation 10 days after inoculation
row,SMILES,efficacy [%]
1,C/C(=N\OCC(C)CON)c1ccc(C)c(C)n1 (racemic) [XII-7],≥ 70
2,"CCC(=NOCC(C)CON=C(CC)c1cccc(CC)n1)c1cccc(CC)n1 (single isomer, unassigned) [Compound 253]",≥ 70
3,CC(=NOCCC(C)CCON=C(C)c1cccc(C)n1)c1cccc(C)n1 (stereo not shown) [Compound 75],≥ 70
4,CC1=NOC(CO/N=C(\C)c2cc(C)cc(C)n2)(CO/N=C(\C)c2cc(C)cc(C)n2)C1 [Compound 637],≥ 70
5,CC(=NOCCCCCON=C(C)c1cccc(C)n1)c1cccc(C)n1 [Compound 11],≥ 70
6,CC(=NOCc1cccc(CON=C(C)c2cccc(C)n2)n1)c1cccc(C)n1 [Compound 740],≥ 70
7,Cc1cccc(C(=NOCCCON=C(c2cccc(C)n2)C2CC2)C2CC2)n1 (mixture of isomers) [Compound 167],≥ 70
